# Small-molecule microarray binding calls

From ROBIN, a set of small-molecule microarray screens (doi:10.1002/anie.202211358).

Oligonucleotides screened, 5′ to 3′:
PreQ1: PreQ1 riboswitch RNA pseudoknot, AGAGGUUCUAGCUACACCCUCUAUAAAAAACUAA. From B. subtilis. About 170 hits among about 24,000 compounds.
TPP: TPP riboswitch RNA three-way junction, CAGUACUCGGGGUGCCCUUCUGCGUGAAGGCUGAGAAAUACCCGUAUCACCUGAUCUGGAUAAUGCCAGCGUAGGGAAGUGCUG. About 160 hits among about 24,000 compounds.
SAM-II: SAM-II riboswitch RNA pseudoknot, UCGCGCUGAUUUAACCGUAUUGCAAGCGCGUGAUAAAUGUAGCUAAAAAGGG. About 200 hits among about 21,000 compounds.

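The test is a small-molecule microarray: each compound is printed twice on a reactive slide, and binding shows as fluorescence of the labelled oligonucleotide after washing. For the PreQ1, TPP and SAM-II riboswitches the laboratory earlier reported (doi:10.1038/s41467-019-09493-3) 1 µM RNA, 2 h, and a rule that included a mean Z-score above 3 (spot signal-to-noise against the whole library), a score well above that on a control array, and duplicate spots agreeing (coefficient of variation under 100). The data file gives only the calls; its cut-offs may differ, and compounds hitting several targets are kept. The calls come from the array alone, and fixing a compound to the slide can hide its binding.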
Key: hit = hit, no hit = tested without a hit.
Compounds were drawn at random from those tested, without regard to their results.
A dash means that no call is listed here.

SMILES,PreQ1,TPP,SAM-II
CC(=O)Nc1sc2c(c1-c1nc3ccccc3s1)CNC2,no hit,no hit,no hit
CC1(C)CC(=O)C2=C(C1)OC(N)=C(C#N)C21C(=O)Nc2ccc(Cl)cc21 (centres unmarked),no hit,no hit,no hit
CN1CCCN(C[C@H]2C[C@H](CO)CN(C(=O)c3ccccn3)C2)CC1,no hit,no hit,no hit
CNc1nc(Oc2ccc(O)nn2)nc(N(C)C)n1,no hit,no hit,-
CCOCC(=O)N1CCC2(CCN(Cc3nc(C)c[nH]3)CC2)C(CO)C1 (centres unmarked),no hit,no hit,no hit
CCc1noc2cc(-c3ccccc3)n(C)c(=O)c12,no hit,no hit,no hit
CCn1c(N)nc2cc(C(=O)N3CCC4(C=Cc5ccccc54)CC3)cnc21,no hit,no hit,no hit
NCC1CCS(=O)(=O)C1 (centres unmarked),no hit,no hit,no hit
O=C(OCCNC1=NS(=O)(=O)c2ccccc21)C1CC(=O)N(c2ccc(Cl)cc2)C1 (centres unmarked),no hit,no hit,no hit
CCNC(=O)[C@@H]1C[C@H](N)CN1C(=O)Cn1cnc2ccccc2c1=O,no hit,no hit,no hit
Cc1cc(F)cc(-c2cccc3c(N)ccnc23)c1,no hit,no hit,no hit
Cc1cc(C)c2c(N)c(-c3nc(-c4cccnc4)no3)sc2n1,no hit,no hit,no hit
CCC(O)c1nc2ccccc2n1CCCOc1cc(C)ccc1C (centres unmarked),no hit,no hit,-
O[C@]12CCNC[C@H]1CN(Cc1cccc(-c3ccccc3)c1)CC2,no hit,no hit,no hit
Cc1ccccc1C(c1nc(Cc2cccs2)nn1CCO)N(C)C (centres unmarked),no hit,no hit,no hit
Cc1ccc(Nc2nc3ccccc3c3nnc(C)n23)cc1,no hit,no hit,-
COc1ccccc1CCCNC[C@]1(O)CCCN2CCCC[C@@H]21,no hit,no hit,no hit
CCOc1ccc(C(=O)n2nc(N)c3cc4ccc(C)cc4nc32)cc1OCC,no hit,no hit,no hit
Cc1cccc(-c2nc3nc(C)c(CC(=O)N(CCO)CCO)c(C)n3n2)c1,no hit,no hit,-
NC(=O)OCC(COC(N)=O)c1ccccc1,no hit,no hit,no hit
CC(C)Cc1nc(CN(C)Cc2cc3n(n2)CCCNC3)no1,no hit,no hit,no hit
Cc1ccc2c(c1)C1(C(=O)N2)C(C#N)=C(N)Oc2c1c(=O)n(C)c1ccccc21 (centres unmarked),no hit,no hit,no hit
CCOC(=O)C1=C(N)Oc2cc(C)oc(=O)c2C1c1c(Cl)cccc1Cl (centres unmarked),no hit,no hit,no hit
c1ccc(OCCNCc2ccsc2)nc1,hit,no hit,no hit
Cc1cc(Br)ccc1Nc1ncnc2c1nc1n2CCCCC1,no hit,no hit,-
Cc1cccc(C)c1Nc1c(-c2ccccc2O)nc2ncccn12,no hit,no hit,no hit
NCCOc1ccc(Cl)cc1Cc1ccccc1,no hit,no hit,no hit
Cn1c(=O)c2c(nc(NCc3ccccc3)n2Cc2cccc(F)c2)n(C)c1=O,no hit,no hit,no hit
COc1ccc(CNCCC2=CCCCC2)cc1.Cl,no hit,no hit,no hit
Cc1ccc(C)c(NC(=O)c2nnn(Cc3ccccc3C)c2N)c1,no hit,no hit,no hit
Cc1nn2c(NCCOCCO)cc(C(C)C)nc2c1-c1ccccc1,no hit,no hit,-
CCN(C(=O)c1ccc(CCC(C)(C)O)cc1)[C@H]1COC[C@@H]1O,no hit,no hit,no hit
Cc1ccsc1[C@@H]1CCN(Cc2ccc(C#CC(C)(C)O)cc2)C[C@H]1O,no hit,no hit,no hit
COc1cccc2c(C)cc(N3CCC(Cc4cccc(CO)c4)C3)nc12 (centres unmarked),no hit,no hit,no hit
O=C(O)c1cc(NCc2cccc(OCc3ccc(F)cc3)c2)ccc1N1CCOCC1,no hit,no hit,no hit
Cc1n[nH]c(CC(=O)N2CCn3nc(CCC(=O)N4CCC(O)CC4)cc3C2)n1,no hit,no hit,no hit
CNC(=O)[C@@H]1C[C@@H](N)CN1Cc1cc2ccc(C)cc2nc1N1CCOCC1,no hit,no hit,no hit
Cc1ccc(OCC(O)Cn2cnc3ccccc32)cc1 (centres unmarked),no hit,no hit,no hit
CC(C)N(CCO)Cc1cccc(C(=O)Nc2nnc(C3CC3)s2)c1,no hit,no hit,no hit
Cl.Cl.O=C1c2cccc3cccc(c23)C(=O)N1CCN1CCN(CC(O)COCc2ccc3c(c2)OCO3)CC1 (centres unmarked),no hit,no hit,no hit
CCCC1CCC(C(=O)n2nc(N)c3cc4ccc(OC)cc4nc32)CC1 (centres unmarked),no hit,no hit,no hit
Cc1ccccc1Nc1c(-c2ccccc2O)nc2ncccn12,no hit,no hit,no hit
CC(C)c1cc(Nc2ccc(F)cc2F)n2nc(-c3cccnc3)nc2n1,no hit,no hit,-
CC(=O)Oc1ccccc1C(=O)O,no hit,no hit,no hit
CC(C)(O)CC(=O)NCCn1ccc2ncnc(Nc3ccc(Oc4cccc(C(F)(F)F)c4)c(Cl)c3)c21,no hit,no hit,no hit
COc1ccc(C(O)c2nccn2C)cc1OC (centres unmarked),no hit,no hit,no hit
NC(=NOC(=O)c1ccccc1I)c1nonc1N,no hit,no hit,no hit
Cc1cc2cccc(NC(=O)N3CCN(Cc4ccco4)C(CCO)C3)c2o1 (centres unmarked),no hit,no hit,no hit
Cn1c(CC2CCNCC2)nnc1SCc1cnn(-c2ccccc2F)c1,no hit,no hit,no hit
Cn1c(=O)c2[nH]c(CCCc3ccc([N+](=O)[O-])cc3)nc2n(C)c1=O,no hit,no hit,no hit
O=c1c2cc3c(=O)n(CCN4CCOCC4)ccc3nc2ccn1CCO,no hit,no hit,no hit
Cc1nnc2c(NCCN3CCOCC3)nc3ccc(C(=O)c4ccccc4)cc3n12,no hit,no hit,-
CCc1nc(N)sc1C(=O)N1C[C@@H](C(=O)O)[C@H](c2ccncc2)C1,no hit,no hit,no hit
Cc1ccc(C2(O)CCN(C(=O)c3cc(N)[nH]n3)CC2)nc1,no hit,no hit,no hit
COC(=O)c1ccc2nc(C)cc(Nc3ccc(Cl)cc3C)c2c1,no hit,no hit,no hit
CC1CCN(c2c(NCc3ccc(C(=O)N4CC(C)CC(C)C4)cc3)c(=O)c2=O)CC1 (centres unmarked),no hit,no hit,-
Cc1cc(C)c2nc(CN3CCC(O)CC3)cc(O)c2c1,no hit,no hit,no hit
OCc1cccc(-n2ccnc2-c2cnc(C3CCCCC3)nc2)c1,no hit,no hit,no hit
COc1ccc(-c2ccc(CNCc3ccncc3)o2)cc1Cl,no hit,no hit,-
Cc1cc2cc(C(=O)NCC(CO)Cc3cccs3)ccc2o1 (centres unmarked),no hit,no hit,no hit
CCc1ccc(C2C(C(=O)OC)=C(N)OC3=C2C(=O)CC(C)(C)C3)cc1 (centres unmarked),no hit,no hit,no hit
COc1cc(NC(=O)c2cc3n(n2)[C@H](C(F)(F)F)C[C@H](c2ccco2)N3)c(C(C)O)cc1OC (some centres unmarked),no hit,no hit,no hit
CC(C)COC(=O)NC1c2ccccc2Oc2ccccc21,no hit,no hit,no hit
CNC(C)(C)C(=O)NCC1CCN(C2CCCCCC2)C1 (centres unmarked),no hit,no hit,no hit
Cc1ccc(C)c(Cn2c(CO)nc3ccccc32)c1,no hit,no hit,-
Cc1ccc(N(CC(O)CN2CCCCC2)S(=O)(=O)c2ccc(C)cc2)cc1 (centres unmarked),no hit,no hit,no hit
OCCc1cnn(-c2cccc(-n3cnnc3)c2)c1,no hit,no hit,no hit
C=CCOc1c(CCC)cc(CCC)cc1C(N)=O,no hit,no hit,no hit
Nc1nccc(NC2CCCc3c2cnn3-c2ccc(F)cc2F)n1 (centres unmarked),no hit,no hit,no hit
Cc1ccc(OC2(C(=O)NCc3snnc3C)CCNCC2)cc1,no hit,no hit,no hit
CCc1[nH]c2c(CNc3nccc(N)n3)cc(F)cc2c1C,no hit,no hit,no hit
Nc1cc(OC(=O)c2ccccc2)nn1S(=O)(=O)c1ccccc1,no hit,no hit,no hit

Repeated from the top, 6 entries:

SMILES,PreQ1,TPP,SAM-II
CC(=O)Nc1sc2c(c1-c1nc3ccccc3s1)CNC2,no hit,no hit,no hit
CC1(C)CC(=O)C2=C(C1)OC(N)=C(C#N)C21C(=O)Nc2ccc(Cl)cc21 (centres unmarked),no hit,no hit,no hit
CN1CCCN(C[C@H]2C[C@H](CO)CN(C(=O)c3ccccn3)C2)CC1,no hit,no hit,no hit
CNc1nc(Oc2ccc(O)nn2)nc(N(C)C)n1,no hit,no hit,-
CCOCC(=O)N1CCC2(CCN(Cc3nc(C)c[nH]3)CC2)C(CO)C1 (centres unmarked),no hit,no hit,no hit
CCc1noc2cc(-c3ccccc3)n(C)c(=O)c12,no hit,no hit,no hit